Consider 3 molecules from publication PMC5323126.

By UniProt entry, the sequences of proteins in these tests, tags left out.
UniProt Q14258: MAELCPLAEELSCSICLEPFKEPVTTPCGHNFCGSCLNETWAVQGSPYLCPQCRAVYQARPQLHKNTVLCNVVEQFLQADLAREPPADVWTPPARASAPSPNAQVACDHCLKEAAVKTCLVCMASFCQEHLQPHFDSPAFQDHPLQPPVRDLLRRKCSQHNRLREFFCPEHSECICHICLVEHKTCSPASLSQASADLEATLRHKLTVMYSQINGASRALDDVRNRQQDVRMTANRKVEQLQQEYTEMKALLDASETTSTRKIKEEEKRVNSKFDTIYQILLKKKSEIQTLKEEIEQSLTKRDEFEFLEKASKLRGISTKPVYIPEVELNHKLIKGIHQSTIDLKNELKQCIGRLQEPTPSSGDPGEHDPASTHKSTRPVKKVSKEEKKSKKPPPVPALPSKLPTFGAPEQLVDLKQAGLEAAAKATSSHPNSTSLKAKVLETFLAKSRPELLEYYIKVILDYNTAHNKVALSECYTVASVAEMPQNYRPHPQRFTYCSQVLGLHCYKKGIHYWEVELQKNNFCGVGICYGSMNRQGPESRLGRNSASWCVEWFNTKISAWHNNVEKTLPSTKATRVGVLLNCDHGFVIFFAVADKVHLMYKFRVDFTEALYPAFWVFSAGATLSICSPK

These are yes or no findings as the source states them, for the method shown. In cells and extracts the contact can be indirect. Binding can be weak; no strength is given. For part of these data: Tags and fused reporters may be left off the sequences shown.

In test [1] the target is endogenous ERG in VCaP cells (N-terminally truncated ERG from the TMPRSS2-ERG fusion gene) (human (endogenous in VCaP)) (UniProt P11308). The test is described as follows: co-IP; endogenous ERG immunoprecipitated from VCaP cells, TRIM25 detected (Supplementary Figure 1C).
A further test deals with GST-TRIM25 (wildtype) (UniProt Q14258). The experiment in a line: pull-down; GST-TRIM25 variants (purified from E. coli) as bait; whole VCaP cell extract; endogenous ERG detected by immunoblot; only the target purified. Background: A western blot detects proteins with antibodies after separation by electrophoresis.
Test [2] addresses Flag-tagged TRIM25 deletion mutant lacking the SPRY domain. The test is described as follows: co-IP; Flag-tagged TRIM25 variants and full-length ERG-HA ectopically expressed in HEK293T.

Turning to “Tripartite motif-containing protein 25 (TRIM25), endogenous in VCaP cells (from UniProt Q14258 1-630)”, in test [1], the binding result is “binds”. Consider “endogenous ERG in VCaP cells (N-terminally truncated ERG from the TMPRSS2-ERG fusion gene) (from UniProt P11308)”, for which, in the test with GST-TRIM25 (wildtype), the binding entry is “binds”.

B1: ERG-HA (full-length HA-tagged ERG) (protein, UniProt P11308 1-479)
chain: MASTIKEALSVVSEDQSLFECAYGTPHLAKTEMTASSSSDYGQTSKMSPRVPQQDWLSQPPARVTIKMECNPSQVNGSRNSPDECSVAKGGKMVGSPDTVGMNYGSYMEEKHMPPPNMTTNERRVIVPADPTLWSTDHVRQWLEWAVKEYGLPDVNILLFQNIDGKELCKMTKDDFQRLTPSYNADILLSHLHYLRETPLPHLTSDDVDKALQNSPRLMHARNTGGAAFIFPNTSVYPEATQRITTRPDLPYEPPRRSAWTGHGHPTPQSKAAQPSPSTVPKTEDQRPQLDPYQILGPTSSRLANPGSGQIQLWQFLLELLSDSSNSSCITWEGTNGEFKMTDPDEVARRWGERKSKPNMNYDKLSRALRYYYDKNIMTKVHGKRYAYKFDFHGIAQALQPHPPESSLYKYPSDLPYMGSYHAHPQKMNFVAPHPPALPVTSSSFFAAPNPYWNSPTGGIYPNTRLPTSHMPSHLGTYY
In the case of B1, in test [2], the binding entry was “binds”.
